PubChem BioAssay AID652243, Drosophila RNAi Screening Center – 2013
The screen tested about 24,000 reagents; this is an unselected part of those with a known target gene and a result. Over the whole deposit, 246 (1%) were called active. 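Plates not normalised; calls are printed but the firefly/Renilla ratio behind them is not deposited; fold cut for lowering reported inconsistently.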 The raw values are shown without normalisation. Unmarked entries are inactive. Reagents against one gene are numbered here. Reagent sequences are not shown. Not given: the amount of reagent.

- Test: 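Knock-downs that decrease or increase androgen receptor reporter signal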 (primary screen)
- Cells: Drosophila S2R+ cells
- Knock-down reagent: long dsRNA against Drosophila genes
- Time to read-out: 72 h (48 h, then 24 h hormone)
- Challenge: synthetic androgen R1881 at 10 nM for 24 h
- Detection: 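Per-well raw luminescence of the androgen-driven firefly reporter and of the Renilla control, two replicates each, without normalisation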
- Direction: firefly reporter light: higher = more light from androgen-responsive reporter; Renilla control light: higher = more constitutive control signal (cell number, transfection)
- Hit rule: 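Across duplicate plates, a knock-down whose log firefly/Renilla ratio shifted a set fold down or up from the GFP/LacZ control mean was a hit; the downward cut appears as both 1.5 and 3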
- Meaning of the calls: active = hit: reporter lowered or raised; inactive = no hit

Silencing of alpha-Catr (alpha-catenin related) #1 gave: firefly reporter light, replicate 1 = 1.47e5; firefly reporter light, replicate 2 = 1.65e5; Renilla control light, replicate 1 = 9.72e5; Renilla control light, replicate 2 = 1.05e6.
For alpha-Catr (alpha-catenin related) #2 the deposit lists firefly reporter light, replicate 1 = 2.59e5; firefly reporter light, replicate 2 = 3.82e5; Renilla control light, replicate 1 = 1.04e6; Renilla control light, replicate 2 = 9.61e5.
After knock-down of Mhc (Myosin heavy chain) #1, the screen gave firefly reporter light, replicate 1 = 1.09e5; firefly reporter light, replicate 2 = 1.36e5; Renilla control light, replicate 1 = 1.26e6; Renilla control light, replicate 2 = 1.35e6.
Knock-down of Mhc (Myosin heavy chain) #2 resulted in: firefly reporter light, replicate 1 = 4.10e5; firefly reporter light, replicate 2 = 3.47e5; Renilla control light, replicate 1 = 1.11e6; Renilla control light, replicate 2 = 9.45e5.
CG7536 gave firefly reporter light, replicate 1 = 1.14e5; firefly reporter light, replicate 2 = 1.17e5; Renilla control light, replicate 1 = 7.06e5; Renilla control light, replicate 2 = 7.06e5.
ETHR #1 showed firefly reporter light, replicate 1 = 3.69e5; firefly reporter light, replicate 2 = 3.82e5; Renilla control light, replicate 1 = 3.64e6; Renilla control light, replicate 2 = 3.37e6.
Against ETHR #2, the entry reads firefly reporter light, replicate 1 = 7.45e5; firefly reporter light, replicate 2 = 1.17e6; Renilla control light, replicate 1 = 1.27e6; Renilla control light, replicate 2 = 1.27e6.
Knock-down of Bulli resulted in: firefly reporter light, replicate 1 = 1.16e5; firefly reporter light, replicate 2 = 86877; Renilla control light, replicate 1 = 1.87e6; Renilla control light, replicate 2 = 9.16e5.
With knock-down of IntS11 (Integrator 11) #1 the results were firefly reporter light, replicate 1 = 84690; firefly reporter light, replicate 2 = 73714; Renilla control light, replicate 1 = 6.63e5; Renilla control light, replicate 2 = 4.16e5.
After knock-down of IntS11 (Integrator 11) #2, the screen gave firefly reporter light, replicate 1 = 3.54e5; firefly reporter light, replicate 2 = 4.76e5; Renilla control light, replicate 1 = 7.75e5; Renilla control light, replicate 2 = 7.58e5.
With knock-down of Cep89 (Centrosomal protein 89kDa) #1, the screen gave firefly reporter light, replicate 1 = 35374; firefly reporter light, replicate 2 = 61148; Renilla control light, replicate 1 = 8.13e5; Renilla control light, replicate 2 = 8.13e5.
After knock-down of Cep89 (Centrosomal protein 89kDa) #2 the results were firefly reporter light, replicate 1 = 4.04e5; firefly reporter light, replicate 2 = 5.19e5; Renilla control light, replicate 1 = 8.86e5; Renilla control light, replicate 2 = 8.86e5.

Part of the list above, reformatted.
{"Gene":"Cep89 (Centrosomal protein 89kDa)","dsRNA no.":1,"firefly reporter light, replicate 1":35374,"firefly reporter light, replicate 2":61148,"Renilla control light, replicate 1":8.13e5,"Renilla control light, replicate 2":8.13e5}
{"Gene":"Cep89 (Centrosomal protein 89kDa)","dsRNA no.":2,"firefly reporter light, replicate 1":4.04e5,"firefly reporter light, replicate 2":5.19e5,"Renilla control light, replicate 1":8.86e5,"Renilla control light, replicate 2":8.86e5}
